Source: patent US20260185150
For some of these results: No signal at the amounts used counts as a negative. For some of these results: Tags and fusion partners may be left off the protein sequences shown. For some of these results: Construct, isoform or probe ends are uncertain for at least one entry.

Experiments:
[1] = target: T1, Bst DNA polymerase (Bacillus stearothermophilus) (UniProt P52026); experiment: activity assay; conditions: purified recombinant protein, label: target 5' quencher and internal fluorescein-T, folded or branched DNA
T1 sequence (looked up, limits assumed): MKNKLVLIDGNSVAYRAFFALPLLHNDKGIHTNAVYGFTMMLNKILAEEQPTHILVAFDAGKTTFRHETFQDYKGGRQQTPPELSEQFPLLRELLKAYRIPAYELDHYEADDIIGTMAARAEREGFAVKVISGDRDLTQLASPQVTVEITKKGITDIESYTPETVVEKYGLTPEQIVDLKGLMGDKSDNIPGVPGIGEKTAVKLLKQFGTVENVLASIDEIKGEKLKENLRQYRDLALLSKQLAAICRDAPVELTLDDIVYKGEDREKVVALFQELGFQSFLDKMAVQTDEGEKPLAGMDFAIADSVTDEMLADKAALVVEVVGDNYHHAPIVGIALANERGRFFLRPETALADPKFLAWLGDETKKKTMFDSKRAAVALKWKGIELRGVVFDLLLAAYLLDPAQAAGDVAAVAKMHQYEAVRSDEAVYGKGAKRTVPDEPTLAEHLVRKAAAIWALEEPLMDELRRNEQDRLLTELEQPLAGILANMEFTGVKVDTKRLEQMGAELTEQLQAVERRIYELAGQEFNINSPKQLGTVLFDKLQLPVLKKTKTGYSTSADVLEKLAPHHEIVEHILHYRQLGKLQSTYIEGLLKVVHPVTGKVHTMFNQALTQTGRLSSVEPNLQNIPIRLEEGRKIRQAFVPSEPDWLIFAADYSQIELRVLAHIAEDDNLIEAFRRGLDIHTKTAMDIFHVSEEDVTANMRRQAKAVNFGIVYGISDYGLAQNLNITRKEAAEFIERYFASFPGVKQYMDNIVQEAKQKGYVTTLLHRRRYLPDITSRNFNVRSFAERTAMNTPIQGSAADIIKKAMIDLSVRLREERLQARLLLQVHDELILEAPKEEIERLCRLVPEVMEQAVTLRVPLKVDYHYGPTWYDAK

[2] = target: Nt.BspQI (triple mutant of BspQI, top-strand nickase) (UniProt D2D3S6); experiment: enzyme reaction in vitro; conditions: 3' phosphate, implies bottom strand nuclease activity, purified recombinant protein, label: target 5' quencher and internal fluorescein-T, folded or branched DNA, variant of Guide C + hairpin target
[3] = 3' phosphate, extension blocked

GAGAGCATTACGAGTCAGCTGAGACTGCGCCT / ACCGGCGGTTAACCGCCGGTAGGCGCAGTCTCAGCTCGTGCT [Guide 8 5' mismatch + hairpin target]
activity on this sequence ([1]; primer extension, fluorescence): active

GAGAGCATTACGAGTCAGCTGAGACTGCGCCT / ACCGGCGGTTAACCGCCGGTAGGCGCAGTCTCAGCTCGTGCT [Guide 10 methoxy with 5' mismatch + hairpin target]
activity on this sequence ([1]; 2'-OMe on last 5 nt, extension blocked): not active

GACTCGATATCGAGTCAGCTGAGACTGCGCCT / ACCGGCGGTTAACCGCCGGTAGGCGCAGTCTCAGCTCGTGCT [Guide 3 (=Guide 7) methoxy blockage + hairpin target]
activity on this sequence ([1]; 2'-OMe on last 5 nt (mCmGmCmCmU), extension blocked): not active

GAAGAGCGATATCGCTCTTCAGCTGAGACTGCGCCT / ACCGGCGGTTAACCGCCGGTAGGCGCAGTCTCAGCTCGTGCT [Guide E + hairpin target]
activity on this sequence ([2]; 2'-OMe on last 6 nt as printed TmGmCmGmCmCmU): active

GAGAGCATTACGAGTCAGCTGAGACTGCGCCT / ACCGGCGGTTAACCGCCGGTAGGCGCAGTCTCAGCTCGTGCT [Guide 6 5' mismatch 3' phosphate + hairpin target]
activity on this sequence [1, 3]: not active

GACTCGATATCGAGTCAGCTGAGACTGCGCCT / ACCGGCGGTTAACCGCCGGTAGGCGCAGTCTCAGCTCGTGCT [Guide 1 (=Guide 11) all DNA + hairpin target]
activity on this sequence ([1]; primer extension, fluorescence): active

GAAGAGCGATATCGCTCTTCAGCTGAGACTGCGCCT / ACCGGCGGTTAACCGCCGGTAGGCGCAGTCTCAGCTCGTGCT [Guide D + hairpin target]
activity on this sequence [2]: active

GACTCGATATCGAGTCAGCTGAGACTGCGCCT / ACCGGCGGTTAACCGCCGGTAGGCGCAGTCTCAGCTCGTGCT [Guide 5 methoxy with terminal DNA base + hairpin target]
activity on this sequence ([1]; 2'-OMe mCmGmCm before terminal DNA (printed mCmGmCmCT), primer extension, fluorescence): active

GACTCGATATCGAGTCAGCTGAGACTGCGCCT / ACCGGCGGTTAACCGCCGGTAGGCGCAGTCTCAGCTCGTGCT [Guide 2 (=Guide 9) all DNA 3' phosphate + hairpin target]
activity on this sequence [1, 3]: not active

GACTCGATATCGAGTCAGCTGAGACTGCGCCT / ACCGGCGGTTAACCGCCGGTAGGCGCAGTCTCAGCTCGTGCT [Guide 4 methoxy blockage 3' phosphate + hairpin target]
activity on this sequence ([1]; 2'-OMe on last 5 nt (mCmGmCmCmU), 3' phosphate, extension blocked): not active
